Source: patent publication US20250382621A1, “IMMUNE EFFECTOR CELL THERAPIES WITH ENHANCED EFFICACY” (Novartis AG, priority 2015, published 2025)
At least one compound was matched to its structure with a doubt left.

Tests used:
[1] = system: NALM6, KMS11 and NHICI929 cell lines; assay: Cytokine secretion of CD19-CART and BCMA-CART cells; type: cell-based, human; conditions: 100 nM; 20 hrs at ratio 1.25 to 1 with specific targets
luciferized KMS11 tumors = assay: In vivo efficacy study of LSD1i-conditioned BCMA-CART cells; parameters: species or system NSG mouse; conditions: mice bearing KMS11 tumors, 0.167 millions CAR+ cells; vs regular BCMA-CART
[2] = system: NALM6, KMS 11 and NHICI929 cells; assay: Proliferation assay of CD19-CART and BCMA-CART cells; conditions: 100 nM; 1:1 with irradiated tumor lines, 4 day
Pan CD3+ T cells = assay: Dose response of LSD1 inhibitors on T cell phenotypes

SMILES: Cc1cc2c(cc1C#N)c(-c1cccc(N)c1C)cn2[C@H]1CC[C@H](O)CC1 [Compound 93, Trans-3-(3-amino-2-methylphenyl)-1-(4-hydroxycyclohexyl)-6-methyl-1H-indole-5-carbonitrile]
- cytokine production from CD19 CART and BCMA-CART cells [1]: significantly enhances cytokine production
- antigen-specific anti-tumor function of BCMA CART cells in vivo (luciferized KMS11 tumors): significantly enhance the antigen-specific anti-tumor function of BCMA CART cells in the acute phase
- proliferative capacity of CD19-CART and BCMA-CART cells [2]: enhances the proliferative capacity
- total expansion rate of total cells (Pan CD3+ T cells; 10 day expansion): without changing the total expansion rate of total cells
- CD3+ Tscm and Tem percentage (Pan CD3+ T cells; observed between 1 nM to 100 nM, Tcm remain the same): could increase/sustain CD3+ Tscm, decrease Tem, in a dose responsive fashion
- CD8+ Tscm, CD4+ Tscm and Tem percentage (Pan CD3+ T cells; observed between 1 nM to 100 nM, Tcm unchanged): could increase/sustain CD8+ Tscm and CD4+ Tscm, decrease Tem, in a dose responsive fashion
